Reference: PubChem BioAssay AID294 (DTP/NCI, 2004)
The list is a part of this screen's results and no random one: its compounds were picked by chemical class. Other doses and runs of a compound may be missing. T/C is the treated group as % of the vehicle group. Schedule codes are those of the source, taken here to give the interval after Q, in days (D) or hours (H), and the number of doses after X. Some T/C values are followed by the survivors on the day toxicity was checked; without a count or a note in brackets, all were alive then. Some entries give survivors of the animals treated and no T/C: the source holds a T/C of zero for them, seemingly a mark for toxic or unscored doses. Counts of survivors are from the toxicity check, whose day is not always given; animals may have died later.

Tested on: MX-1 breast xenograft, nude mice, tumor weight change
Test: NCI In Vivo Anticancer Drug Screen. Data for tumor model Human Mammary Carcinoma MX-1 Xenograft (subcutaneous) in NU/NU Swiss (nude) mice
Conditions: T/C endpoint: optimum tumor weight change, schedule: Q04DX003 (ip), higher T/C = larger tumour
Experimental: The antitumor activity of compounds was measured in mice bearing transplantable tumors. Survival or tumor size were measured and the results are expressed as the measurement made in the treated group (T) divided by the measurement made in the vehicle treated control group (C). The tumor model used in this assay is Human Mammary Carcinoma MX-1 Xenograft (subcutaneous) in NU/NU Swiss (nude) mice

| Structure (SMILES) | T/C (dose: 3.0 mg/kg/injection, vehicle: saline, evaluated on day 37) | T/C (dose: 6.0 mg/kg/injection, vehicle: saline, evaluated on day 37) | survivor count (dose: 12.0 mg/kg/injection, vehicle: saline) | T/C (dose: 12.5 mg/kg/injection, vehicle: suspension in saline, evaluated on day 40) | T/C (dose: 25.0 mg/kg/injection, vehicle: suspension in saline, evaluated on day 40) | T/C (dose: 50.0 mg/kg/injection, vehicle: suspension in saline, evaluated on day 40) | T/C (dose: 100.0 mg/kg/injection, vehicle: suspension in saline, evaluated on day 40) | survivor count (dose: 200.0 mg/kg/injection, vehicle: suspension in saline) | survivor count (dose: 400.0 mg/kg/injection, vehicle: suspension in saline) | survivor count (dose: 800.0 mg/kg/injection, vehicle: suspension in saline) | survivor count (dose: 1600.0 mg/kg/injection, vehicle: suspension in saline) |
| --- | --- | --- | --- | --- | --- | --- | --- | --- | --- | --- | --- |
| C[As](C)SC1OC(CO)C(O)C(O)C1O (stereo unspecified) | 79 % of control [4 of 5 alive on day 37] | 59 % of control | 3 of 5 on day 37 |  |  |  |  |  |  |  |  |
| CC1(C)CN1P(=O)(Nc1ncccn1)N1CC1(C)C (stereo unspecified) |  |  |  | 72 % of control | 78 % of control | 73 % of control | 69 % of control [4 of 5 alive on day 42] | 2 of 5 on day 41 | 1 of 5 on day 41 | 0 of 5 on day 41 | 0 of 5 on day 41 |
